The values below come from US7615527B2, “Peptides which modulate blood coagulation and methods of use thereof” (Oregon Health & Science University, priority 2001, dated 2009).

The test concerns the target α-thrombin (Homo sapiens, UniProt P00734). Description: Competitive binding assay: α-thrombin binding to fluoresceinated γ′ 408-427 peptide. Conditions: 2 nM fluoresceinated peptide with 2 μM α-thrombin. From the text: Proteins, Peptides, and DNA Aptamers. Human α-thrombin was generously provided by Dr. John Fenton, II (New York State Department of Health, Albany, N.Y.) and Dr. Walter Kisiel (University of New Mexico, Albuquerque, N. Mex.). Human γ-thrombin was obtained from Haematologic Technologies, Inc. (Essex Junction, Vt.). Tyrosine-phosphorylated derivatives of peptides corresponding to the γ′ chain carboxyl terminus, […] (SEQ ID NO: 11), were obtained from Research Genetics, Inc. (Huntsville, Ala.) and GeneMed Synthesis, Inc. (South San Francisco, Calif.). The peptides were purified to >95% purity by HPLC, and their molecular weights were verified by mass spectrometry. Tyrosine-sulfated, amino-terminal acetylated hirudin peptide 53-65 was obtained from Bachem, Inc. (Torrance, Calif.) and tyrosine-sulfated hirudin peptide 54-65 was obtained from Sigma (St. Louis, Mo.). Single-stranded DNA aptamers 5′-GGT-TGG-TGT-GGT-TGG-3′ (SEQ ID NO: 5), referred to as HD1, and 5′-AGT-CCG-TGG-TAG-GGC-AGG-TTG-GGG-TGA-CT-3′ (SEQ ID NO: 6), referred to as HD22, were generously provided by Dr. Jeffrey I. Weitz (McMaster University, Hamilton, ONT, Canada). […] The amount of fibrinogen secreted during the labeling was determined using an ELISA described previously (10). […] To quantitate the binding of thrombin to the γ′ chain carboxyl terminus, 50 nM […]-Y (PO3)-DSL-Y (PO3)—PEDDL (SEQ ID NO: 10) peptide (Research Genetics), corresponding to the carboxyl terminal twenty amino acids of the γ′ chain, was labeled for 1 hour at 37° C. with a 5-fold molar excess of fluorescein succinimidyl ester (PanVera) in 100 mM potassium phosphate, pH 7.0 as per the manufacturer's protocol. […] Fluorescence polarization was measured following excitation at 488 nm and emission at 535 nm. […]
Competitive binding assays were performed by incubating 2 nM fluoresceinated peptide with 2 μM α-thrombin in the presence of the indicated concentrations of competing ligand. Fluorescence polarization was measured following excitation at 488 nm and emission at 535 nm.

Structures were worked out from names or drawings and are uncertain.

For the compound `CC(C)C[C@H](NC(=O)[C@H](CC(=O)O)NC(=O)[C@H](CC(=O)O)NC(=O)[C@H](CCC(=O)O)NC(=O)[C@@H]1CCCN1C(=O)[C@H](Cc1ccc(O)cc1)NC(=O)[C@H](CC(C)C)NC(=O)[C@H](CO)NC(=O)[C@H](CC(=O)O)NC(=O)[C@H](Cc1ccc(OP(=O)(O)O)cc1)NC(=O)[C@H](CCC(=O)O)NC(=O)[C@@H](NC(=O)[C@H](CCC(=O)O)NC(=O)[C@H](C)NC(=O)[C@@H]1CCCN1C(=O)[C@H](Cc1cnc[nH]1)NC(=O)[C@H](CCC(=O)O)NC(=O)[C@@H]1CCCN1C(=O)[C@H](CCCNC(=N)N)NC(=O)[C@@H](N)C(C)C)[C@@H](C)O)C(=O)O`, the “Inhibition of α-thrombin binding to fluoresceinated γ′ 408-427 peptide (in words)” value is “slightly more effective than the peptide containing γ′Y(PO3)422” and the “Ki, competition for α-thrombin binding to fluoresceinated γ′ 408-427 peptide” value was “not possible to obtain a statistically significant Ki value”.
In the case of `CC(C)C[C@H](NC(=O)[C@H](CC(=O)O)NC(=O)[C@H](CC(=O)O)NC(=O)[C@H](CCC(=O)O)NC(=O)[C@@H]1CCCN1C(=O)[C@H](Cc1ccc(OP(=O)(O)O)cc1)NC(=O)[C@H](CC(C)C)NC(=O)[C@H](CO)NC(=O)[C@H](CC(=O)O)NC(=O)[C@H](Cc1ccc(O)cc1)NC(=O)[C@H](CCC(=O)O)NC(=O)[C@@H](NC(=O)[C@H](CCC(=O)O)NC(=O)[C@H](C)NC(=O)[C@@H]1CCCN1C(=O)[C@H](Cc1cnc[nH]1)NC(=O)[C@H](CCC(=O)O)NC(=O)[C@@H]1CCCN1C(=O)[C@H](CCCNC(=N)N)NC(=O)[C@@H](N)C(C)C)[C@@H](C)O)C(=O)O`, the “Ki, competition for α-thrombin binding to fluoresceinated γ′ 408-427 peptide” value is “not possible to obtain a statistically significant Ki value”.
